Experimental findings from the supplement of paper PMC8256030 are described below.

Where “and” joins values, the source holds several entries; their conditions need not be identical. Identical values can stand only once. This is one part of the list. Repeats in this data set agree poorly, so a single value says little.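 HEK293T cells were given each compound shortly before transfection with a reporter in which red mCherry is followed by the SARS-CoV-2 frameshift element and then GFP in the −1 frame, so GFP appears only after frameshifting.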

The subject of assay [1] is SARS-CoV-2 -1 PRF reporter mCherry-FSE-GFP(-1). The experiment in a line: mCherry (red) intensity as percent of control; higher = higher upstream reporter expression. Particulars: 10 µM; 24 h; HEK293T.
The test system is the same in assay [2]. The experiment in a line: percent effect, decrease of GFP/mCherry ratio (-1 PRF reporter) relative to controls; higher = stronger frameshift inhibition. The conditions noted are these: 10 µM; 24 h; HEK293T.

`O=C(c1ccc2nonc2c1)N1CCCCC1` [farampator] registered a mCherry in assay [1] of 92.5%. The percent effect in assay [2] is -0.429%.
In the same order, the values of `Cc1nc(=O)c2cc(CN(C)c3ccc(C(=O)N[C@@H](CCC(=O)O)C(=O)O)s3)ccc2[nH]1` [raltitrexed] are 148% and 6.32%.
As for `CC/C=C\C/C=C\C/C=C\CCCCCCCC(=O)O`, in assay [1], the mCherry was 112% and 106%. Further, the percent effect in assay [2] was -2.02% and -0.648%.
Take `CCOc1cc(N)c(Cl)cc1C(=O)NCC1CN(Cc2ccc(F)cc2)CCO1` (stereo unspecified) [mosapride]: in assay [1], the mCherry was 87.7%. Besides, in assay [2], the percent effect was -5.57%.
`C[C@]12C=CC(=O)C=C1CC[C@@H]1[C@@H]2[C@@H](O)C[C@@]2(C)[C@H]1CC[C@]2(O)C(=O)COP(=O)(O)O` showed a mCherry in assay [1] of 136%. The percent effect in assay [2] came out at 1.69%.
The molecule `Cc1cnc(NC(=O)C2=C(O)c3ccccc3S(=O)(=O)N2C)s1` [Meloxicam] had a mCherry in assay [1] of 104%. In addition, the percent effect in assay [2] is -1.88%.
In the same order, the values of `COc1cc2c(cc1OC)C(=O)C(CC1CCN(Cc3ccccc3)CC1)C2` (stereo unspecified) are 86.7% and -3.47%.
The molecule `CCCc1nn(C)c2c(=O)[nH]c(-c3cc(S(=O)(=O)N4CCN(C)CC4)ccc3OCC)nc12` returned a mCherry in assay [1] of 136%. For the same molecule, the percent effect in assay [2] was determined as 11.8%.
In the same order, the values of `NC(=O)c1csc([C@@H]2O[C@H](CO)[C@@H](O)[C@H]2O)n1` [tiazofurine] are 83.6% and -4.12%.
For the molecule `Cc1nc2n(c(=O)c1CCN1CCC(c3noc4cc(F)ccc34)CC1)CCCC2` [risperidone], the mCherry in assay [1] is 104% and 83.4%. For the same molecule, in assay [2], the percent effect was -3.68% and -2.89%.
`CCOC(=O)OC(C)OC1=C(C(=O)Nc2ccccn2)N(C)S(=O)(=O)c2ccccc21` (stereo unspecified) [ampiroxicam] came in with a mCherry in assay [1] of 56.2%. Also, the percent effect in assay [2] is -4.6%.
In the same order, the values of `N#C[C@@H]1CCCN1C(=O)CNC12CC3CC(CC(O)(C3)C1)C2` [vildagliptin] are 88.1% and -4.71%.
In the same order, the values of `COc1ccc(-c2cc(C(F)F)nn2-c2ccc(S(N)(=O)=O)cc2)cc1F` [deracoxib] are 97.2% and -5.89%.
`C#C[C@]1(OC(C)=O)CC[C@H]2[C@@H]3CCC4=C/C(=N/O)CC[C@@H]4[C@H]3CC[C@@]21CC` [Ortho-Prefest] gave a mCherry in assay [1] of 99.2%. For the same molecule, in assay [2], the percent effect is -2.85%.
As for `C[C@@H]1C[C@H]2[C@@H]3C[C@H](F)C4=CC(=O)C=C[C@]4(C)[C@H]3[C@@H](O)C[C@]2(C)[C@H]1C(=O)CO` [Fluocortolone], the mCherry in assay [1] came to 76%. The percent effect in assay [2] was -0.645%.
In the same order, the values of `O=C(OCC(O)CO)c1ccccc1Nc1ccnc2cc(Cl)ccc12` (stereo unspecified) [glafenine] are 108% and -1.27%.
In the same order, the values of `O=C(N/N=C/c1ccc([N+](=O)[O-])o1)c1ccc(O)cc1` are 99.4% and -2.2%.
In the same order, the values of `CC1(C)S[C@@H]2[C@H](NC(=O)C(C(=O)Oc3ccc4c(c3)CCC4)c3ccccc3)C(=O)N2[C@H]1C(=O)O` (stereo partly specified) [carindacillin] are 82.4% and 0.953%.
Molecule `C[C@@H]1CC(=O)NN=C1c1ccc(NN=C(C#N)C#N)cc1` [levosimendan] came in with a mCherry in assay [1] of 105%. In assay [2], the percent effect was -12.6%.
In the case of `CCCCC1C(=O)N(c2ccccc2)N(c2ccccc2)C1=O` [phenylbutazone], the mCherry in assay [1] was 80.5% and 89.6%. Further, the percent effect in assay [2] is -4.9% and -0.423%.
In assay [1], `N=C(N)C(O)c1ccc2c(c1)OCO2` (stereo unspecified) [olmidine] gave a mCherry of 108%. For the same molecule, the percent effect in assay [2] is -11.9%.
In assay [1], `CCCCc1oc2ccc(NS(C)(=O)=O)cc2c1C(=O)c1ccc(OCCCN(CCCC)CCCC)cc1` [dronedarone] gave a mCherry of 102%. Also, in assay [2], the percent effect is -3.59%.
In the same order, the values of `Clc1ccccc1CN1CCc2sccc2C1` [ticlopidine] are 94.7% and 0.194%.
In the same order, the values of `Cc1cc(S(=O)(=O)O)c2c(C)ccc(C(C)C)cc1-2` [sodium gualenate] are 92.5% and -1.18%.
In assay [1], `Cc1[nH]c(=O)c(C#N)cc1-c1ccc2nccn2c1` [olprinone] registered a mCherry of 102%. Further, the percent effect in assay [2] is -4.97%.
As to `C#C[C@]1(O)CC[C@H]2[C@@H]3CCC4=CC(=NO)CC[C@@H]4[C@H]3CC[C@@]21CC` (mixture of isomers) [Norelgestromin], the mCherry in assay [1] was 109%. Moreover, the percent effect in assay [2] is -2.56%.
Consider `Cn1c([N+](=O)[O-])cnc1COC(N)=O` [ronidazole], for which the mCherry in assay [1] came to 101%. Also, the percent effect in assay [2] was -3.51%.
In the same order, the values of `NS(=O)(=O)c1cc(Cl)c(Cl)c(S(N)(=O)=O)c1` [diclofenamide] are 109% and -13.8%.
With `N[C@@H]1CCCC[C@H]1N.O=C([O-])C(=O)[O-].[Pt+2]` [Eloxatin], the mCherry in assay [1] is 104%. For the same molecule, the percent effect in assay [2] is -8.2%.
In the same order, the values of `CSCC1CN(/N=C/c2ccc([N+](=O)[O-])o2)C(=O)O1` (stereo unspecified) [nifuratel] are 108% and -1.21%.
In the same order, the values of `CCN(CCO)CCCC(C)Nc1ccnc2cc(Cl)ccc12` (stereo unspecified) are 86.5% and -34.5%.
In turn, `Cc1ccc(F)cc1C(=O)Nc1ccc(C(=O)N2Cc3cccn3Cc3ccccc32)c(Cl)c1` [lixivaptan] came in with a mCherry in assay [1] of 39.4%. Also, the percent effect in assay [2] was -5.08%.
In the same order, the values of `CCOC(=O)[C@H](CCc1ccccc1)N[C@@H](C)C(=O)N(CC(=O)O)C1Cc2ccccc2C1` [delapril] are 90.2% and -5.35%.
Turning to `Cc1cc(O)c(C(=O)N[C@@H](C(=O)N[C@@H]2C(=O)N3C(C(=O)O)=C(CSc4nnnn4C)CS[C@H]23)c2ccc(O)cc2)cn1` [Cefpiramide], in assay [1], the mCherry was 119%. Also, in assay [2], the percent effect was -6.94%.
In the same order, the values of `Oc1ncnc2[nH]ncc12` [Allopurinol] are 56.8% and -8.2%.
In the same order, the values of `CC(=O)SC[C@H](Cc1ccccc1)C(=O)NCC(=O)OCc1ccccc1` [dexecadotril] are 65.3% and -4.49%.
Consider `Cc1cc(O)c(S(=O)(=O)O)cc1Cc1cc(S(=O)(=O)O)c(O)cc1C` [dicresulene], for which the mCherry in assay [1] was found to be 77.3%. The percent effect in assay [2] came out at 0.369%.
In the same order, the values of `CC(C)Nc1ncccn1` [isaxonine] are 82.7% and 2.22%.
In the same order, the values of `CC(C)(C)NC[C@H](O)COc1ccccc1C1CCCC1` [penbutolol] are 68.2% and 1.51%.
In the same order, the values of `CCCN(CCC)S(=O)(=O)c1ccc(C(=O)O)cc1` [probenecid] are 101% and -1.75%.
In assay [1], `CC[C@H](C)C[C@H](C)CCCCCCCCC(=O)N[C@H]1C[C@@H](O)[C@@H](NCCN)NC(=O)[C@@H]2[C@@H](O)CCN2C(=O)[C@H]([C@H](O)CCN)NC(=O)[C@H]([C@H](O)[C@@H](O)c2ccc(O)cc2)NC(=O)[C@@H]2C[C@@H](O)CN2C(=O)[C@H]([C@@H](C)O)NC1=O` [Cancidas] showed a mCherry of 109%. Also, in assay [2], the percent effect was -1.36%.
In the same order, the values of `NC(=O)N[C@@H](CCC(=O)O)C(=O)O` [Carbaglu] are 106% and -4.04%.
In the same order, the values of `CCCC(=O)OCOC(=O)C1=C(C)NC(C)=C(C(=O)OC)C1c1cccc(Cl)c1Cl` (stereo unspecified) [clevidipine] are 105% and -2.31%.
In assay [1], `O=C(Nc1ccccc1)OCC(CN1CCCCC1)OC(=O)Nc1ccccc1` (stereo unspecified) showed a mCherry of 105%. For the same molecule, the percent effect in assay [2] is -3.22%.
In the same order, the values of `NCCCC(=O)O` are 102% and -0.122%.
In the same order, the values of `NS(=O)(=O)c1ccc(S(=O)(=O)Nc2cccc3c(Cl)c[nH]c23)cc1` [indisulam] are 107% and 0.284%.
In the same order, the values of `CCCCC(=O)N(Cc1ccc(-c2ccccc2-c2nnn[nH]2)cc1)[C@H](C(=O)O)C(C)C` [valsartan] are 68% and -5.13%.
In assay [1], `CC(C)C(=O)c1c(C(C)C)nn2ccccc12` [ibudilast] gave a mCherry of 92.1%. Also, the percent effect in assay [2] was -2.75%.
In the same order, the values of `C[C@](N)(Cc1ccc(O)c(O)c1)C(=O)O` [Methyldopa] are 77.9% and -2.37%.
In the same order, the values of `CCC(C)(C)c1ccc(OCCCCCCN2CCN(c3ccc(C)c(Cl)c3)CC2)cc1` [teroxalene] are 39% and -12.8%.
For the molecule `CCCCC(=O)O[C@]1(C(=O)CO)CC[C@H]2[C@@H]3CCC4=CC(=O)CC[C@]4(C)[C@H]3[C@@H](O)C[C@@]21C`, the mCherry in assay [1] was determined as 87.5%. In addition, the percent effect in assay [2] is -0.651%.
In the same order, the values of `CC(=O)O[C@H]1C[C@H](O[C@H]2[C@@H](O)C[C@H](O[C@H]3[C@@H](O)C[C@H](O[C@H]4CC[C@@]5(C)[C@H](CC[C@@H]6[C@@H]5CC[C@]5(C)[C@@H](C7=CC(=O)OC7)CC[C@]65O)C4)O[C@@H]3C)O[C@@H]2C)O[C@H](C)[C@H]1O` [acetyldigitoxin] are 1630% and -11.4%.
In the same order, the values of `CCC1(C)CC(=O)NC1=O` (stereo unspecified) [ethosuximide] are 92% and -4.65%.
In the same order, the values of `C[C@H](C(=O)O)c1ccc(-c2ccccc2)c(F)c1` [esflurbiprofen] are 65% and -0.244%.
For the molecule `CC1(C)S[C@@H]2[C@H](NC(=O)[C@H](N)c3ccccc3)C(=O)N2[C@H]1C(=O)O` [ampicillin], the mCherry in assay [1] was determined as 91.7%. The percent effect in assay [2] was -2.87%.
In the same order, the values of `Cc1c(C(=O)NN2CCCCC2)nn(-c2ccc(Cl)cc2Cl)c1-c1ccc(Cl)cc1` [rimonabant] are 88.4% and -2.17%.
In the same order, the values of `CCN(CC)CCC(=O)N1c2ccccc2Sc2ccc(C(F)(F)F)cc21` [fluacizine] are 97.4% and -0.918%.
Turning to `CCC(=O)OCC(=O)[C@@]1(OC(=O)CC)[C@@H](C)C[C@H]2[C@@H]3CCC4=CC(=O)C=C[C@]4(C)[C@@]3(Cl)[C@@H](O)C[C@@]21C` [Vanceril], the mCherry in assay [1] was determined as 107%. Besides, the percent effect in assay [2] was -2.12%.
In the case of `CCCCCC(C)N` (stereo unspecified) [tuaminoheptane], in assay [1], the mCherry stood at 112%. Further, the percent effect in assay [2] is -2.9%.
In the same order, the values of `C=C1CC[C@H](O)C/C1=C/C=C1\CCC[C@]2(C)[C@@H]([C@H](C)/C=C/[C@H](C)C(C)C)CC[C@@H]12` [ergocalciferol] are 108% and -23.8%.
In the same order, the values of `CCN(CC)CCOCCOC(=O)C(CC)(CC)c1ccccc1` are 96.2% and 2.67%.
In the same order, the values of `CC(C)[C@@H]1CC[C@@H](C)C[C@H]1O` [levomenthol] are 102% and 1.28%.
Regarding `CC(=O)O[C@]1(C(C)=O)CC[C@H]2[C@@H]3C=C(C)C4=CC(=O)CC[C@]4(C)[C@H]3CC[C@@]21C` [Megestrol Acetate], the mCherry in assay [1] was found to be 120%. Moreover, the percent effect in assay [2] came to 3.12%.
In the same order, the values of `NC(=O)C1(N2CCCCC2)CCN(CCCC(=O)c2ccc(F)cc2)CC1` [pipamperone] are 136% and 5.2%.
In the same order, the values of `Cl/C(=C\n1cncn1)c1ccc(Cl)cc1Cl` [loreclezole] are 102% and -2.15%.
In the same order, the values of `CCCCNc1c(C(=O)OCC)c(C)nc2c1cnn2CC` [tracazolate] are 103% and -0.887%.
For the molecule `CC(=O)O[C@H]1C(=O)[C@@]2(C)[C@H]([C@H](OC(=O)c3ccccc3)[C@]3(O)C[C@H](OC(=O)[C@H](O)[C@@H](NC(=O)c4ccccc4)c4ccccc4)C(C)=C1C3(C)C)[C@]1(OC(C)=O)CO[C@@H]1C[C@@H]2O` [paclitaxel], the mCherry in assay [1] stood at 233%. Besides, the percent effect in assay [2] is -25.8%.
In the same order, the values of `CC(C)(Oc1ccc(Cl)cc1)C(=O)OCCNC(=O)c1cccnc1` [picafibrate] are 91.6% and -3.53%.
